Values from PubChem BioAssay AID743454 (Peter MacCallum Cancer Centre, 2014).
Test: 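Genes whose loss kills vorinostat-resistant colon cancer cells under vorinostat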 (primary screen). Cell system: human HCT116-VR colon cancer cells, selected for vorinostat resistance. Knock-down reagent: siRNA pool against human genes, 40 nM siRNA pool. Duration: vorinostat for 24 h, read-out about 72 h after transfection. Treatment: vorinostat at 2.5 µM final. Detection: 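Cell viability by CellTiter-Fluor and caspase 3/7 activity by luminescence, each scaled to mock wells per plate, duplicates averaged, then robust z-scored over all plates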. Scale: viability robust z-score: higher = more viable cells than screen typical; caspase robust z-score: higher = more caspase 3/7 activity than screen typical. Rule for the call: 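Hits are knock-downs in viability class RV1/RV2 or caspase class CA1/CA2, excluding ones that killed cells in the no-drug cell-count arm; hits then retested with single siRNAs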.
In all, the deposit lists about 18,000 reagents; below is an unselected part. Of all reagents, 450 (2.5%) are marked active. 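Single biological run; no consistent viability z cut-off exists, so the class columns, not z-scores, define the calls.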 No sequences are given here.

The opening 2 records, ahead of the listing:
TXNDC17
- viability hit class: no change
- caspase hit class: no change
- viability robust z-score: -0.26
- caspase robust z-score: -0.69
- Outcome: inactive

MAB21L1
- viability hit class: no change
- caspase hit class: no change
- viability robust z-score: -0.24
- caspase robust z-score: 1.66
- Outcome: inactive

Main list, from the first entry:
TXNDC17
- viability hit class: no change
- caspase hit class: no change
- viability robust z-score: -0.26
- caspase robust z-score: -0.69
- Outcome: inactive

MAB21L1
- viability hit class: no change
- caspase hit class: no change
- viability robust z-score: -0.24
- caspase robust z-score: 1.66
- Outcome: inactive

P2RY8
- viability hit class: no change
- caspase hit class: no change
- viability robust z-score: 0.62
- caspase robust z-score: -0.64
- Outcome: inactive

C4orf36
- viability hit class: no change
- caspase hit class: no change
- viability robust z-score: -1.85
- caspase robust z-score: 0.4
- Outcome: inactive

SLC22A9
- viability hit class: no change
- caspase hit class: no change
- viability robust z-score: -0.68
- caspase robust z-score: -0.31
- Outcome: inactive

SBF1
- viability hit class: no change
- caspase hit class: no change
- viability robust z-score: 0.72
- caspase robust z-score: 0.34
- Outcome: inactive

FAM3A
- viability hit class: no change
- caspase hit class: no change
- viability robust z-score: 0
- caspase robust z-score: 3.25
- Outcome: inactive

GAGE4
- viability hit class: no change
- caspase hit class: no change
- viability robust z-score: 0.81
- caspase robust z-score: -0.6
- Outcome: inactive

REEP1
- viability hit class: no change
- caspase hit class: no change
- viability robust z-score: -0.04
- caspase robust z-score: 0.95
- Outcome: inactive

ZHX2
- viability hit class: no change
- caspase hit class: no change
- viability robust z-score: -0.48
- caspase robust z-score: -0.14
- Outcome: inactive

RIC8A
- viability hit class: no change
- caspase hit class: no change
- viability robust z-score: 0.28
- caspase robust z-score: 4.75
- Outcome: inactive

NPHS1
- viability hit class: no change
- caspase hit class: no change
- viability robust z-score: -0.07
- caspase robust z-score: -0.34
- Outcome: inactive

CLEC10A
- viability hit class: no change
- caspase hit class: no change
- viability robust z-score: 0.82
- caspase robust z-score: -0.38
- Outcome: inactive

SLITRK4
- viability hit class: no change
- caspase hit class: no change
- viability robust z-score: 0.55
- caspase robust z-score: -0.39
- Outcome: inactive

ZKSCAN2
- viability hit class: no change
- caspase hit class: no change
- viability robust z-score: 0.76
- caspase robust z-score: -0.7
- Outcome: inactive

TCERG1L
- viability hit class: no change
- caspase hit class: no change
- viability robust z-score: -0.24
- caspase robust z-score: 2.54
- Outcome: inactive

CNP
- viability hit class: no change
- caspase hit class: no change
- viability robust z-score: -0.01
- caspase robust z-score: -0.21
- Outcome: inactive

TCP1
- viability hit class: no change
- caspase hit class: no change
- viability robust z-score: -0.12
- caspase robust z-score: 0.24
- Outcome: inactive

RELA
- viability hit class: no change
- caspase hit class: no change
- viability robust z-score: 0.3
- caspase robust z-score: 2.54
- Outcome: inactive

CLPP
- viability hit class: no change
- caspase hit class: no change
- viability robust z-score: -0.22
- caspase robust z-score: 2.01
- Outcome: inactive

DDRGK1
- viability hit class: no change
- caspase hit class: no change
- viability robust z-score: 0.35
- caspase robust z-score: 0.84
- Outcome: inactive
